Laboratory results: ChEMBL document CHEMBL4296182, “CO-ADD screening of NIH NCI Diversity Set V”
Some of the results follow. Measured potencies and affinities stand elsewhere.

Test system: Pseudomonas aeruginosa
Conditions: Concentration 20 uM; ASSAY_TEST Inhibition of Bacterial Growth; detection method Absorption (OD600); MEDIA CAMHB; plate type 384well; NBS; CORNING #3640; time 18 hr

In order of rising Inhibition:
1. NNC(=O)c1nnsc1-c1csnn1  -30.83%
2. N#Cc1ccc(NC2c3ccccc3CC2O)cc1 (centres undefined)  -23.24%
3. c1cncc(-c2nc3ccccc3s2)c1  -23%
4. CCOC(=O)/C(C#N)=C\c1c[nH]c2ccccc12  -22.4%
5. O=C1NCCc2c1[nH]c1ccccc21  -19.46%
6. CCC/C(C)=C/c1ccc(CC)cn1  -17.76%
7. COc1ccc2c(c1)c1ccc3c(c1n2C)C(=O)C=CC3=O  -14.24%
8. CCOC(=O)c1c(C)nc(C)c(C(=O)OCC)c1-c1ccc(OC)cc1  -13.4%
9. NC(=O)C1=CC2C3C=CC2(O)C(=O)OC3O1 (centres undefined)  -12.57%
10. C=C(C)C/N=C/C1(C)CCC(C)=CO1 (centres undefined)  -9.38%
11. O=C(CCl)NC1(C(=O)O)CCCC1  -8.58%
12. CSc1ncc2ncn(C3OC(CO)C(O)C3O)c2n1 (centres undefined)  -8.45%
13. CCOc1ccc(Nc2c3ccccc3nc3ccccc23)cc1  -8.45%
14. O=C(O)CCC(=O)OCCN(Cc1ccc(Oc2ccc([N+](=O)[O-])cc2)cc1)C(=O)C(Cl)Cl  -8.03%
15. CC1=C2C3OC(=O)C(C)C3CCC2(C)C=C(Cl)C1=O (centres undefined)  -6.7%
16. Cc1cc(C)c2c(SC(C)C)nc(N)nc2n1  -3.21%
17. COC1OC(CO)C(N=C(C)C)C1O (centres undefined)  -2.66%
18. O=C(O)c1cc(O)ccc1/N=N/c1ccccc1  -2.55%
19. Oc1ccc(Cl)nn1  -2.21%
20. Cc1ccc(/N=N/c2ccc(N)cc2C)c(S(N)(=O)=O)c1  -1.43%
21. CC(=O)NCC1(O)CCCC(C)C1 (centres undefined)  -1%
22. Cn1c2c(c(=O)n(C)c1=O)NC1(N2)C(=O)Nc2ccccc21 (centres undefined)  -0.84%
23. Cc1cc(O)c(-c2cc(O)c(C)cc2O)cc1O  -0.36%
24. CCOC(=O)c1[nH]c(C(=O)O)c(OC(=O)CC)c1C  0.59%
25. O=C(NN1CCCCC1)NN1CCCCC1  1.63%
26. CCOCCc1c(O)nc(SC)nc1O  2.08%
27. Cc1c(C#N)c2n(c1C)CCCC(=O)N2  2.2%
28. CCCCn1ccnc1C  2.35%
29. CCOC(=O)c1c(O)cc(C)nc1O  3.48%
30. COc1ccc(/C(C#N)=C/c2ccccn2)cc1  3.9%
31. COCC(O)Cn1ccnc1[N+](=O)[O-] (centres undefined) [MISONIDAZOLE]  4.11%
32. Sc1nccn1-c1c(Cl)cccc1Cl  4.56%
33. CC1(C)CCCC2(C)C(OCCO)=CC(=O)C=C12 (centres undefined)  4.75%
34. OCc1ncc(-c2ccccc2)s1  5.14%
35. Cc1nc2c(O)cccc2cc1CO  5.29%
36. CC1(C)CC[C@]2(C(=O)n3ccnc3)CC[C@]3(C)[C@H](C(=O)C=C4[C@@]5(C)C=C(C#N)C(=O)C(C)(C)[C@@H]5CC[C@]43C)[C@@H]2C1  5.52%
37. Cc1nnc2nc(-c3ccccc3)nc(-c3ccccc3)n12  5.56%
38. Nc1nc(=S)ss1  5.6%
39. N#Cc1cnn2ccn(C3OC(CO)C(O)C3O)c12 (centres undefined)  6%
40. Cc1c(C(C)(C(=O)O)c2c(C)n(C)c3ccccc23)c2ccccc2n1C  6.07%
41. C=CCOc1c(CCC)cc(CCC)cc1C(N)=O  6.32%
42. CCOC(=O)Nc1ccc(C(=O)/C=C/c2ccccc2)cc1  6.46%
43. c1ccc(Sc2ncccn2)nc1  6.51%
44. C#Cc1cccc(NC(=O)c2ccc(Cl)cc2Cl)c1  6.65%
45. CC(C)(C)C(=O)/C=C/c1ccc(Oc2ccccc2)cc1  7.79%
46. O=C1Cc2cccc(O)c(=O)c2C(=O)O1  8.55%
47. CCOc1ccc(NC(=S)NC(=O)c2ccco2)cc1  8.77%
48. O=C(O)CCC1(c2ccccc2)NC(=O)NC1=O (centres undefined)  8.96%
49. Nc1ccc(S(=O)(=O)NCC2CCCCO2)cc1 (centres undefined)  9.04%
50. CC(=O)OCCn1c([N+](=O)[O-])cnc1/C=[N+](\[O-])C1CCCCC1  9.15%
51. O=C(O)/C=C\c1cc2c(cc1[N+](=O)[O-])OCO2  9.65%
52. Cc1ccc(/C=C2\CCOC2=O)cc1  10.2%
53. O=C(c1ccccc1)C1N=NCC1c1ccc(Cl)cc1 (centres undefined)  10.37%
54. Sc1ncnc2c1cnn2-c1ccccc1  10.77%
55. CC(=O)NC1(C(=O)O)CCCC1  10.87%
56. OC(COc1ccccc1)CN1CCN(c2ccccc2)CC1 (centres undefined)  11.01%
57. CC1CC=C(O)C12OCC(C)(C)CO2 (centres undefined)  11.01%
58. Nc1ccc(C(=O)Oc2ccc([N+](=O)[O-])cc2)cc1  11.01%
59. O/N=C(/c1ccccc1)c1ccc2c3c(cccc13)CC2  11.31%
60. CCCCN1C(=O)CC2CCOC21C (centres undefined)  11.36%
61. O=Cc1c[nH]c2ncccc12  11.42%
62. C/C(=N\NC(N)=O)c1ccc(Cl)c(-n2cccc2)c1  11.76%
63. CC1(c2ccc3ccccc3c2)CCC(=O)O1 (centres undefined)  11.89%
64. NC(=O)NC(=O)c1nccnc1C(=O)O  12.38%
65. NC(=O)Cc1ccc2c(c1)[nH]c1ccccc12  12.38%
66. O=C(O)/C=C/C(=O)Nc1cccc2cccnc12  12.48%
67. Cc1ccc2c(c1)C(=C(C#N)C#N)CCN2  12.59%
68. Cc1ccc(NC(=O)Nc2ccccc2C(N)=O)cc1  12.6%
69. c1ccc2c(c1)Oc1cccc3cccc-2c13  12.61%
70. COc1cc(S(N)(=O)=O)c(OC)cc1N  12.8%
71. Cc1cc(-c2ccc(N3C(=O)CC4(CCCC4)C3=O)c(C)c2)ccc1N1C(=O)CC2(CCCC2)C1=O  12.96%
72. O=C(O)CCN1c2ccccc2Sc2ccccc21  13.73%
73. Cn1nc(NC(=O)C(F)(F)F)c2ncc(-c3ccc(Cl)cc3)nc21  13.97%
74. CCCCN1CCN=C1S  14.02%
75. O=C(O)/C=C\C(=O)Nc1nccs1  14.14%
76. O=C(C(=O)c1cccnc1)c1cccnc1  14.14%
77. CCC(CNc1cc(OC)cc2cccnc12)NC1CCCCC1 (centres undefined)  14.31%
78. COc1ccccc1NC(=O)c1cc2ccccc2cc1O  14.46%
79. O=C1NCN(CCO)CN1  14.64%
80. CCCCCCCCCCC(C(=O)O)C1(C(=O)O)CCC(=O)O1 (centres undefined)  14.81%
81. Cc1ccc(CC#N)c(-c2c(CC#N)ccc(C)c2C)c1C  14.89%
82. O=[N+]([O-])c1cccnc1Oc1cccnc1  15.57%
83. CC(C)Cc1nnc(N)s1  15.57%
84. O=C1OCC/C1=C\c1ccc2c(c1)OCO2  15.83%
85. O=[N+]([O-])c1ccc(-c2ncc(-c3ccc(Br)cc3)o2)cc1  16.39%
86. Sc1ncnc2c1ncn2C1CCCC1  16.55%
87. C=CCc1ccccc1OCC(=O)O  16.77%
88. CCOC(=O)CC(=O)NC(C)(C)CCCCC(C)(C)NC(=O)CC(=O)OCC  17.16%
89. CC(C)=CCC/C(C)=C\C(N)=O  17.68%
90. NC(=O)c1nc2c([nH]c1=O)CCCC2  17.77%
91. COc1ccc(C2C3=C(COC3=O)Oc3cc4c(cc32)OCO4)cc1OC (centres undefined)  18.03%
92. O=c1nc2onnc2c(/C=N\O)[nH]1  18.09%
93. CCC(CC)c1ncc[nH]1  18.15%
94. Cc1cc2cc3c(=O)[nH]c(=O)cc-3n(CC(O)C(O)C(O)CO)c2cc1C (centres undefined)  18.27%
95. N#CCCCCN1CCCC1  18.49%
96. CCCCCc1cccnc1  18.72%
97. O=C(Nc1ccc(Cl)c(Cl)c1)c1ccc(Cl)c(Cl)c1  18.88%
98. CN1C(=C=Cc2cc(I)c(O)c(I)c2)C(C)(C)c2ccccc21  18.95%
99. O=C(CSc1nc2ccc([N+](=O)[O-])cc2s1)c1ccc2ccccc2c1  19.2%
100. Oc1nc2[nH]c(Cl)nc(Cl)c-2n1  19.66%
101. CC(=O)/C=C(\C)Nc1ccccc1O  19.73%
102. Cc1csc(NC(=O)c2ccc(C(=O)Nc3nc(C)cs3)cc2)n1  19.87%
103. CC(=O)n1cc(C2CC(=O)OC3=C2CC(=O)C(C)(C)C3)c2ccccc21 (centres undefined)  20.14%
104. O=C(Nc1ccc(NC(=O)c2ccncc2)cc1)c1ccncc1  20.31%
105. CC(=O)Nc1cc(NC(C)=O)ncn1  20.37%
106. O=c1cc2oc3cc(O)c(O)cc3c(-c3ccccc3O)c-2cc1O  20.52%
107. Cn1ncc2c(Nc3cccc(Cl)c3)nc(Nc3cccc(Cl)c3)nc21  20.54%
108. CC12CCC(/C(=N/c3ccc(/N=C4\C(=O)C5(C)CCC4C5(C)C)cc3)C1=O)C2(C)C  20.66%
109. CCOC(=O)c1ccc(NC(=O)Oc2cc(C)c(Cl)cc2C(C)C)cc1  21.8%
110. CN(CC(=O)O)Cc1oc(CO)cc(=O)c1O  23.09%
111. COc1cc2c(cc1OC)C(/C=C/c1ccco1)=NCC2.O=S(=O)(O)O  23.17%
112. CC(=O)OC1CCC2(C)C(=CCC3C2CCC2(C)C3CC3OC4(CCC(C)CN4)C(C)C32)C1 (centres undefined)  23.32%
113. CCCN(CCC)c1ccc(/C=C/c2ccc3cc(OCC)ccc3n2)cc1  24.12%
114. C=C(C)c1nc(Oc2ccccc2)nc(Oc2ccccc2)n1  24.3%
115. Cc1cccc(N2CCN(CC(O)COc3ccccc3Cl)CC2)c1 (centres undefined)  26.87%
116. COc1ccccc1N1C(=O)CC(Sc2ccccc2N)C1=O (centres undefined)  28.07%
117. CC(=O)c1c(O)c(C)c(O)c2c1OC1=CC(=O)/C(=C(/C)N)C(=O)C12C (centres undefined)  28.33%
118. OCc1nnn(-c2ccccc2)c1CO  29.3%
119. Clc1ccc(Nc2nnc(-c3ccc4c(c3)OCO4)o2)cc1  29.93%
